Source: patent publication US20080312171A1, “Tetracycline-Dependent Regulation of Rna Interference” (CENTRE NATIONAL DE LA RECHERCHE SCIENTIFIQUE, priority 2005, published 2008)
At least one structure is not confirmed: it was looked up by name or label, or the drawing left a doubt.

Assays:
Assay type in all cases: cell-based
[1] = tested on: GFP expression in HEK 293T GFP cell clones; test: GFP fluorescence (FACS, microscopy) in cell clones from transduced HEK 293T GFP cells, Dox-controlled RNAi
[2] = tested on: human p53; test: Western blot analysis of p53 silencing by Dox-regulated RNAi in HEK 293T, MCF-7 and A549 cells; conditions: Dox 6 μg/ml
Procedure: Cells (1×10^5) were incubated overnight with indicated quantities of vector, expressed as ng of protein p24, and then cultivated in the absence and in the presence of 6 μg/ml Dox. After a 5 day (MCF-7 and A549 cells) and a 7 day cultivation (HEK 293T cells), protein was extracted from the cells and analyzed by immunoblotting.
Inventors constructed a second vector, which contained a shRNA encoding sequence designed to silence expression of human p53 as described (1). […] The expression of p53 was not reduced when non-transduced cells were incubated in the presence of Dox (6 μg/ml).
Cell extracts were prepared in lysis buffer [25 mM Tris-HCl (pH 7.5), 1% Triton X-100, 0.5% sodium deoxycholate, 5 mM EDTA, 150 mM NaCl] containing a cocktail of protease inhibitors (Roche, Meylan, France). The protein samples (30 μg) were separated on SDS-9% polyacrylamide gels and then transferred to Protan nitrocellulose membranes (Schleicher and Shuell, Dassel, Germany) in an electroblotting apparatus, using standard procedures (26). Immunodetection was performed as described in Tejedor-Real et al. (27), using a monoclonal anti-p53 antibody (BD Biosciences, Erembodegem, Belgium), a monoclonal anti-actin antibody (Chemicon, Hampshire, UK) and an anti-mouse Ig-horseradish peroxidase (HRP) conjugate (Amersham Biosciences).

[3] = tested on: siRNAs designed to silence GFP in HEK 293T GFP cells; test: Northern Blot analysis of Dox-regulated expression of siRNAs from the vector; conditions: transduced HEK 293T GFP cells, Dox 6 μg/ml, 7 days
[4] = clone C9, after 5 days in the presence of Dox

C[C@H]1c2cccc(O)c2C(=O)C2=C(O)[C@]3(O)C(=O)C(C(N)=O)=C(O)[C@@H](N(C)C)[C@@H]3[C@@H](O)[C@@H]21 [Dox, Doxycycline]
GFP expression by fluorescence microscopy ([1]; clone C9, 6 μg/ml Dox, 72 h after induction): only expressed in the absence of Dox | change in GFP fluorescence within 24 h after addition of Dox ([1]; clone C9, 6 μg/ml Dox, FACS): significant decrease | GFP fluorescence 48 h after the removal of Dox [1, 4]: increased significantly | incubation without Dox required to restore maximal expression of GFP [1, 4]: 5 to 6 days | effect of lower concentrations of Dox on RNAi ([1]; clone C9, concentrations below about 6 μg/ml): either ineffective or caused incomplete or delayed RNAi | expression of p53 in non-transduced cells [2]: not reduced | expression of siRNAs designed to silence GFP [3]: expressed
